Experiment [1] deals with WT Flag-pCAF (p300/CBP associated factor) (UniProt Q92831). As to the kind of experiment: co-IP; COS cells cotransfected with Myc-CIITA and Flag-pCAF; lysed in 1% NP40 buffer, precleared; immunoprecipitated with anti-Flag (control Mouse IgG), immunoblotted with anti-Myc. (In general: Immunoblotting shows a protein as a band on a membrane.)
Experiment [2] has the same target. As to the kind of experiment: co-IP; COS cells cotransfected with CIITA (WT or K141R, K144R, K141/144R) and Flag-pCAF; lysed in 1% NP40 buffer, precleared; immunoprecipitated with anti-Myc or Mouse IgG, immunoblotted with anti-Myc (as the legend prints).

Protein sequences, listed by entry. Tags and fused reporters are not part of them.
UniProt Q92831: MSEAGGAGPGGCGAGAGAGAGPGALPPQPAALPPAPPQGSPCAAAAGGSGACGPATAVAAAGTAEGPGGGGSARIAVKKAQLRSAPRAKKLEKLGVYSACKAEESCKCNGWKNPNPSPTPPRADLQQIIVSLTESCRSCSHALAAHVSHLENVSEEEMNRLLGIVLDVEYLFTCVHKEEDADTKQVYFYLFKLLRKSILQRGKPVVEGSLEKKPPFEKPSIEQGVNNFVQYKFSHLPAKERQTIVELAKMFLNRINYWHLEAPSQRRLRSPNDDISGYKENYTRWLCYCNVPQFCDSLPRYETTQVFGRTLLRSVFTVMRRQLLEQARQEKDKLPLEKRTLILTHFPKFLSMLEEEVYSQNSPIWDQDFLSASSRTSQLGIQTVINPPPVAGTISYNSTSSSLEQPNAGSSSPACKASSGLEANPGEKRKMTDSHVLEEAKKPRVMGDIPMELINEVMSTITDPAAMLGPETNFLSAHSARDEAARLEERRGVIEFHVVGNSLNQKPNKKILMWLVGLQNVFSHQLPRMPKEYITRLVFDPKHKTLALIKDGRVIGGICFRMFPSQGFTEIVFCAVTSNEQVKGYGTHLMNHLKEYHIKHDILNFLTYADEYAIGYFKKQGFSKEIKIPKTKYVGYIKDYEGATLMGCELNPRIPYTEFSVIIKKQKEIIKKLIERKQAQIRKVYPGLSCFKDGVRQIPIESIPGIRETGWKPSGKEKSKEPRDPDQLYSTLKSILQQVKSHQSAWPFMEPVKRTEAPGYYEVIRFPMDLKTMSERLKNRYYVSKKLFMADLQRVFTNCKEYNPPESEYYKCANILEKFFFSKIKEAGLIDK

Where a chain is given by its changes, count along the chain named. Names and notes keep the numbering of the source. These are yes or no findings as the source states them, for the method shown. In cells and extracts the contact can be indirect. Some results given as binding are weak or reduced against the parent protein; the word gives no strength. For some of these results: Tags and fused reporters may be left off the sequences shown.

B1: WT Myc-CIITA (Class II Transactivator) (protein, UniProt P33076 1-1130)
chain: MRCLAPRPAGSYLSEPQGSSQCATMELGPLEGGYLELLNSDADPLCLYHFYDQMDLAGEEEIELYSEPDTDTINCDQFSRLLCDMEGDEETREAYANIAELDQYVFQDSQLEGLSKDIFKHIGPDEVIGESMEMPAEVGQKSQKRPFPEELPADLKHWKPAEPPTVVTGSLLVGPVSDCSTLPCLPLPALFNQEPASGQMRLEKTDQIPMPFSSSSLSCLNLPEGPIQFVPTISTLPHGLWQISEAGTGVSSIFIYHGEVPQASQVPPPSGFTVHGLPTSPDRPGSTSPFAPSATDLPSMPEPALTSRANMTEHKTSPTQCPAAGEVSNKLPKWPEPVEQFYRSLQDTYGAEPAGPDGILVEVDLVQARLERSSSKSLERELATPDWAERQLAQGGLAEVLLAAKEHRRPRETRVIAVLGKAGQGKSYWAGAVSRAWACGRLPQYDFVFSVPCHCLNRPGDAYGLQDLLFSLGPQPLVAADEVFSHILKRPDRVLLILDGFEELEAQDGFLHSTCGPAPAEPCSLRGLLAGLFQKKLLRGCTLLLTARPRGRLVQSLSKADALFELSGFSMEQAQAYVMRYFESSGMTEHQDRALTLLRDRPLLLSHSHSPTLCRAVCQLSEALLELGEDAKLPSTLTGLYVGLLGRAALDSPPGALAELAKLAWELGRRHQSTLQEDQFPSADVRTWAMAKGLVQHPPRAAESELAFPSFLLQCFLGALWLALSGEIKDKELPQYLALTPRKKRPYDNWLEGVPRFLAGLIFQPPARCLGALLGPSAAASVDRKQKVLARYLKRLQPGTLRARQLLELLHCAHEAEEAGIWQHVVQELPGRLSFLGTRLTPPDAHVLGKALEAAGQDFSLDLRSTGICPSGLGSLVGLSCVTRFRAALSDTVALWESLQQHGETKLLQAAEEKFTIEPFKAKSLKDVEDLGKLVQTQRTRSSSEDTAGELPAVRDLKKLEFALGPVSGPQAFPKLVRILTAFSSLQHLDLDALSENKIGDEGVSQLSATFPQLKSLETLNLSQNNITDLGAYKLAEALPSLAASLLRLSLYNNCICDVGAESLARVLPDMVSLRVMDVQYNKFTAAGAQQLAASLRRCPHVETLAMWTPTIPFSVQEHLQQQDSRISLR
Take B1: the binding result in experiment [1] is “binds”.

B2: K141/144R CIITA (protein, UniProt P33076 1-1130)
chain: B1 chain with K141R, K144R
For the molecule B2, the binding result in experiment [2] is “binds”.

B3: K144R CIITA (protein, UniProt P33076 1-1130)
chain: B1 chain with K144R
With B3, the binding entry in experiment [2] is “binds”.

B4: K141R CIITA (protein, UniProt P33076 1-1130)
chain: B1 chain with K141R
For the molecule B4, the binding entry in experiment [2] is “binds”.

The values above are taken from publication PMC5327758.
